Source: patent US20180333455A1
These are yes or no findings as the source states them, for the method shown. Some binding calls cover weakened binding; strength is not graded here.

How the values were obtained:
latrophilin-1 (mouse) [1] = target: T1, latrophilin-1 (mouse) (UniProt Q80TR1); assay: fluorescence co-localization of FITC-TCAP-1 with latrophilin-1 immunoreactivity on Hypo E-38 cells
T1 sequence (looked up): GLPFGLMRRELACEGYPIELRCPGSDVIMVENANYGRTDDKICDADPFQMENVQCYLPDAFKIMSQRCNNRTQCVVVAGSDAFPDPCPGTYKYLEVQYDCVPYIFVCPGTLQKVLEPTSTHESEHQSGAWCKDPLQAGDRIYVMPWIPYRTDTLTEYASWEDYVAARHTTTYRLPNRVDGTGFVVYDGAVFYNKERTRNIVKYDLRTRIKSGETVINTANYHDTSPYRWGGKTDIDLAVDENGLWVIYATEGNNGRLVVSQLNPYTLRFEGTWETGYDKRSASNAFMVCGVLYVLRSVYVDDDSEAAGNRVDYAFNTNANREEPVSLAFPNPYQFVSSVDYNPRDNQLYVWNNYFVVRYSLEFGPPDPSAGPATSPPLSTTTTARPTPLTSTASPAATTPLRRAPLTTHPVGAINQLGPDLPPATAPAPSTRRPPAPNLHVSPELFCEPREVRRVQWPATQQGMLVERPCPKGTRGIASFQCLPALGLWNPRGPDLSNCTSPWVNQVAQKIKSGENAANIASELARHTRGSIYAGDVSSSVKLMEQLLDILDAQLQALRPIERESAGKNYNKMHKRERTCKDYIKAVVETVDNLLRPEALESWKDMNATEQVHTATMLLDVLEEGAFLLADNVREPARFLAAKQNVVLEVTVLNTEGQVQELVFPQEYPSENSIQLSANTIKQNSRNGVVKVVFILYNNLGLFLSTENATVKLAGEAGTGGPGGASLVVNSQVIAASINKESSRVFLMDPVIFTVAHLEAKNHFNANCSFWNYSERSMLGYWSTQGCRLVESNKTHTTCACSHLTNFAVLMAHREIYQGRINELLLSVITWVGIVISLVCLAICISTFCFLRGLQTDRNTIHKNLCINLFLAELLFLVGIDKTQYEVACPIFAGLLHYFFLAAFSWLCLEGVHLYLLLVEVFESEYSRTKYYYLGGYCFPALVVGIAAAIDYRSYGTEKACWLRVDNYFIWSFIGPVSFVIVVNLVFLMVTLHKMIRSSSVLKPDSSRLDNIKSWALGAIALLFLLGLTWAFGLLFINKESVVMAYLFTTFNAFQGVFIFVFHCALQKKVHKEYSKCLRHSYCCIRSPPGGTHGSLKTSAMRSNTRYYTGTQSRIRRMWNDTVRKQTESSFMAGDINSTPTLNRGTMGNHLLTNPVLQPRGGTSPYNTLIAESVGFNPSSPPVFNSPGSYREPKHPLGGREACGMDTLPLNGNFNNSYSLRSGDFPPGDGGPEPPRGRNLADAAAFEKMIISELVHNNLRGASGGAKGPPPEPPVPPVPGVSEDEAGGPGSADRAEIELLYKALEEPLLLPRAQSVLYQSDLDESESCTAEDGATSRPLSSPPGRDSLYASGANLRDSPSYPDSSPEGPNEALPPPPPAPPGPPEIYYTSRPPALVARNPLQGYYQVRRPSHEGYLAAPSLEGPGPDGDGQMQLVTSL

latrophilin-1 (mouse) [2] = target: T1, latrophilin-1 (mouse); assay: fluorescence co-localization on Hypo E-38 cells (FIG. 10B legend)
β-dystroglycan (mouse) = target: T2, β-dystroglycan (mouse) (UniProt Q62165); assay: FITC-TCAP-1 binding assay with β-DG immunohistochemistry on mouse gastrocnemius sections
T2 sequence (looked up): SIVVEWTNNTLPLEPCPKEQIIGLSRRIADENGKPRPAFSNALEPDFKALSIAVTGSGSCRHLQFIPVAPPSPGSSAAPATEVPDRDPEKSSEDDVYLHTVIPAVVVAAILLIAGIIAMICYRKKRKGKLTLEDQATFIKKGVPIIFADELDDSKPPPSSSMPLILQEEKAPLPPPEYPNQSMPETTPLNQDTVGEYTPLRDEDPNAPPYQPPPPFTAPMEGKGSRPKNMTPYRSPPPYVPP

binding (latrophilin-1 (mouse) [1]): binds
binding (latrophilin-1 (mouse) [2]): binds
binding (β-dystroglycan (mouse)): binds
B1: FITC-[K8]-TCAP-1 (peptide)
peptide: QQLLGTGKVQGYDGYFVLSVEQYLELSDSANNIHFMRQSEI
modifications: FITC conjugated to the primary amine of the lysine group (K8)
